Results: the supplement of paper PMC10849652
Some of the results follow.

Protein sequences, listed by entry. Tags and fused reporters are not part of them. Lines headed by an entry give the natural chain unless they say otherwise; changes in a name come on top.
UniProt O60701: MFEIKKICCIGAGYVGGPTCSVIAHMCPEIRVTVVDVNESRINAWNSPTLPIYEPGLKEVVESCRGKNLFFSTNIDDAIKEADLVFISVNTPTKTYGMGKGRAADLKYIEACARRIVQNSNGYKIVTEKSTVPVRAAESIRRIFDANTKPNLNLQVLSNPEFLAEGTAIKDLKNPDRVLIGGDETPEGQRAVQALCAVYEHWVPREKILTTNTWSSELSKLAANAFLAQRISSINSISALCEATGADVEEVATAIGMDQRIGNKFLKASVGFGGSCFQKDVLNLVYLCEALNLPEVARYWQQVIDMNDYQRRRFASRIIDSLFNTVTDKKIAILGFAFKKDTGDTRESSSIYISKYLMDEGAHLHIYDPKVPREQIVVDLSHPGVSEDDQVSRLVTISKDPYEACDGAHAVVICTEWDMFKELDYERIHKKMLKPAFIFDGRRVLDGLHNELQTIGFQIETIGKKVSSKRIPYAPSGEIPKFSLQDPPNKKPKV
UniProt Q9H9C1: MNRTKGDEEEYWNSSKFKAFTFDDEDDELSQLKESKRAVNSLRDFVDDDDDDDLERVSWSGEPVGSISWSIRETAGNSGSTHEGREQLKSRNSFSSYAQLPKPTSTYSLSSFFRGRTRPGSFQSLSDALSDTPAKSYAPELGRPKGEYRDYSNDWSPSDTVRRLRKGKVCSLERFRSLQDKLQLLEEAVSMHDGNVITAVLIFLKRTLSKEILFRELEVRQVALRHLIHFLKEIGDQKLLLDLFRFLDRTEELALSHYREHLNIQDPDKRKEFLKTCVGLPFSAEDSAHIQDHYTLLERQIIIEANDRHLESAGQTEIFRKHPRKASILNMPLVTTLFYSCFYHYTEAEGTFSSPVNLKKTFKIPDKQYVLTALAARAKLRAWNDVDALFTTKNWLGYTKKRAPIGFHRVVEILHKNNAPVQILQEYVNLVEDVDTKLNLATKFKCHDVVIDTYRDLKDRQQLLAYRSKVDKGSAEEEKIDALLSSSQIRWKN
UniProt Q9C0B0: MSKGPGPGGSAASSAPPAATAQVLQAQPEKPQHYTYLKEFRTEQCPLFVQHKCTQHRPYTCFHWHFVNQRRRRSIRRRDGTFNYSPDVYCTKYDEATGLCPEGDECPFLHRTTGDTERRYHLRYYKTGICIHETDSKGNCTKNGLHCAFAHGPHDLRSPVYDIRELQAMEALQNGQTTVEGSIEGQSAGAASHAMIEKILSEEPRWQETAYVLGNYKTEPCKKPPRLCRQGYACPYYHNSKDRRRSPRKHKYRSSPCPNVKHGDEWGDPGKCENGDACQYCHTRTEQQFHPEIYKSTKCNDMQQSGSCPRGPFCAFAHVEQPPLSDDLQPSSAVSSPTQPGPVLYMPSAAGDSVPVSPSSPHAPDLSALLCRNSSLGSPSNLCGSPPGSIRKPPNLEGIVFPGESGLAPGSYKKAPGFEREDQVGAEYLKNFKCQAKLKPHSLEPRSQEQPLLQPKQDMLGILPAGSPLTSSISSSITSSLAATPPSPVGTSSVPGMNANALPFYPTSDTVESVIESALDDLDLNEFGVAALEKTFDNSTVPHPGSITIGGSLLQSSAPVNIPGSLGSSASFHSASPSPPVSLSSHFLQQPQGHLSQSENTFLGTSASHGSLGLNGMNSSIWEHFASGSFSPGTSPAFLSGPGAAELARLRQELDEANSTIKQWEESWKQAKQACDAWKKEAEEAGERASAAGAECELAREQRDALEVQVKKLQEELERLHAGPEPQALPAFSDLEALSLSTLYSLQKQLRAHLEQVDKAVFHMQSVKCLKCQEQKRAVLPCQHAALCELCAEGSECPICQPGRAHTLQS
UniProt Q96T88: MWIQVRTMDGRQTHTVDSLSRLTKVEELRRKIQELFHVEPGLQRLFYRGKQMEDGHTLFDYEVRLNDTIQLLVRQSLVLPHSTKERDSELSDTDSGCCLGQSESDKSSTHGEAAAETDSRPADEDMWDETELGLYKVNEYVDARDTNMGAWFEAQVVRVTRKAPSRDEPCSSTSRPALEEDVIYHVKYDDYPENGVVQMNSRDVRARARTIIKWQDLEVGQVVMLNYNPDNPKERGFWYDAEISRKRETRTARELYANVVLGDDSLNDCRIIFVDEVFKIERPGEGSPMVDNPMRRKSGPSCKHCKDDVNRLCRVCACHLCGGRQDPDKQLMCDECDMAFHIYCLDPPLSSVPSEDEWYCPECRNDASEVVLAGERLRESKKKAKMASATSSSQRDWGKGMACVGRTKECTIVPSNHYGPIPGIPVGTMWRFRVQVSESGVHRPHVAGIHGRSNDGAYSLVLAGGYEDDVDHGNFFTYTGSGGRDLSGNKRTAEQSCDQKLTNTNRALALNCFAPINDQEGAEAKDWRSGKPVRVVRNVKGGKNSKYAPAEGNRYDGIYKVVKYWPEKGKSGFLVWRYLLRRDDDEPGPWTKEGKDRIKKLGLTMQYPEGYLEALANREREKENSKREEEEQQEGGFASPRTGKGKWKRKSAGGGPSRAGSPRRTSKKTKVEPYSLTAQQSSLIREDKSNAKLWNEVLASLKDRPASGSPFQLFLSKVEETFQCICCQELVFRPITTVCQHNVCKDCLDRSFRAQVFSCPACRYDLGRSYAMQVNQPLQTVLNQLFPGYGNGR
UniProt Q15853: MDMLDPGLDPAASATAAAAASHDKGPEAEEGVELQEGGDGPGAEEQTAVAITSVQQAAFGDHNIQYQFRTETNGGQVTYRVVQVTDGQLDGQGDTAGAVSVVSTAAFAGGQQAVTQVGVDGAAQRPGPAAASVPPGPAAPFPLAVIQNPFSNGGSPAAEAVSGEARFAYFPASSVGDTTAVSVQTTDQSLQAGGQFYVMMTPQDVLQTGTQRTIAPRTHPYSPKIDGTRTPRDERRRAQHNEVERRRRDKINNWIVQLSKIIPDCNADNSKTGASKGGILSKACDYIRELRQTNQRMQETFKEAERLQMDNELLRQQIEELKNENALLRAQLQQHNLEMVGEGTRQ
UniProt O94763, whole entry, looked up: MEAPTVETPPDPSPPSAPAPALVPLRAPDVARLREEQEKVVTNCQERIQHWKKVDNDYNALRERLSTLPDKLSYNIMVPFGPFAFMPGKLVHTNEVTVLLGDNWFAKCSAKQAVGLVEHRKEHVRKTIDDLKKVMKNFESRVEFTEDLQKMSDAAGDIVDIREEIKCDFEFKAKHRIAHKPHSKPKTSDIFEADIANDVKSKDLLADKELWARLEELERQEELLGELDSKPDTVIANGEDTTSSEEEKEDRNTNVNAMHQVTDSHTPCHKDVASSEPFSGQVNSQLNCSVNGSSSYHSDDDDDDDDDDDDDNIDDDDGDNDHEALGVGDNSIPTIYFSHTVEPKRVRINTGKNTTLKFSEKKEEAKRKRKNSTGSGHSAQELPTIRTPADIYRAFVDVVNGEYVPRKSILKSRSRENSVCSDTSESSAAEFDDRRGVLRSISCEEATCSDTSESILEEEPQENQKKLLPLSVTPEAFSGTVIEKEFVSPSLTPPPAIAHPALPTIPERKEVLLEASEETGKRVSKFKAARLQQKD
UniProt Q9NZ43: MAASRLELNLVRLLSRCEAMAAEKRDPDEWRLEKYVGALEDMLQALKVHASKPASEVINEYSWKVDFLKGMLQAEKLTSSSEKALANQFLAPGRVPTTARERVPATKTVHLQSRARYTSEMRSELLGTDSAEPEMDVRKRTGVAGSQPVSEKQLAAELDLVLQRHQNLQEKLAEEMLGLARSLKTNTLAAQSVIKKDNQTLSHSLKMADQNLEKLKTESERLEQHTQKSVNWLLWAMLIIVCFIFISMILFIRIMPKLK
UniProt P45974: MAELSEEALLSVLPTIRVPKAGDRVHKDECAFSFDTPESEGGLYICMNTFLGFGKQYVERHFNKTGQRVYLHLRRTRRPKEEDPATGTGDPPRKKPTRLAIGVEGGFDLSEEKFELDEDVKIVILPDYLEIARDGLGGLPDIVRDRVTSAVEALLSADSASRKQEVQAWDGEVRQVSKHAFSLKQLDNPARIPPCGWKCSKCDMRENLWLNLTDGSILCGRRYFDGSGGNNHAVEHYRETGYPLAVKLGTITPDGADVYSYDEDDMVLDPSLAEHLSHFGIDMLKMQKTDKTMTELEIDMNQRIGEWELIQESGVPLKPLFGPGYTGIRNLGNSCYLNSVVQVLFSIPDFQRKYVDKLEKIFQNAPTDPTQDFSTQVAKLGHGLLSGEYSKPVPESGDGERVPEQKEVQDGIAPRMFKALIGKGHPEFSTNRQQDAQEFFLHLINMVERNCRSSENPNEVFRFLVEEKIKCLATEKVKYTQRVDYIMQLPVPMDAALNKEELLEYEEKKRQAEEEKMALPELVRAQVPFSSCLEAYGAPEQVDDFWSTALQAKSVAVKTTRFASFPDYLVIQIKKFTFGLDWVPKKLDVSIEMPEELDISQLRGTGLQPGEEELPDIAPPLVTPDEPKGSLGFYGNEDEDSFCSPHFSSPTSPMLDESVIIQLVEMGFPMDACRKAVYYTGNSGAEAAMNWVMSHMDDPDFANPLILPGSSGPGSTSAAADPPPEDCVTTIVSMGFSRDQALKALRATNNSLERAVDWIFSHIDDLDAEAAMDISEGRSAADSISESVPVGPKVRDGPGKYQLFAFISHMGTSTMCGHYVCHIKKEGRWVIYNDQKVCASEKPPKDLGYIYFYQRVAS

Experiments:
Assay in all cases: log2 fold change, soluble protein after heating vs DMSO (PISA); higher = thermal stabilisation; K562 lysate, 10 uM; active = over 0.2 and 3.5 SD of the protein, either way, in both replicates (recomputed)
erlotinib = compound: C#Cc1cccc(Nc2ncnc3cc(OCCOC)c(OCCOC)cc23)c1 [erlotinib]
Summary of the method: (§1)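 Log-two fold change in thermal stability relative to solvent controls is reported from duplicates. For each sample, crude K562 extract from dounce-homogenised pellets in PBS pH 7.4 with 1 mM MgCl2, at 1 mg/mL protein, was treated with 10 μM compound for 30 min. Aliquots heated for 3 min across 48°C-58°C were pooled, brought to 0.5% NP-40 at 4°C and cleared at 21,000xg for 90 min. The supernatant was quantified by TMTpro 16plex LC-MS/MS with channel sums equalised.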

[1] = compound: C/C(=N\NC(=O)C1=CC(=CC=C1)S(=O)(=O)N2CCOCC2)/C3=C(C=CC(=C3)Cl)O
Summary of the method: as §1

[2] = compound: C1=CC(=CC=C1C2=NC3=C(N2)C=C(C=C3)C(=O)N)OC4=CC=C(C=C4)Cl
Summary of the method: as §1

[3] = compound: C1=CC2=C(C=CC(=C2)/C=C\3/C(=O)NC(=NCC4=CC=CS4)S3)N=C1
Summary of the method: as §1

[4] = compound: C1=CC2=NC=CN=C2C=C1/C=C/3\C(=O)NC(=O)S3
Summary of the method: as §1

[5] = compound: C1=CC=C(C=C1)C2=NC(=C(N2)C3=CC=NC=C3)C4=CC(=C(C=C4)Cl)O
Summary of the method: as §1

[6] = compound: C1=CC=C2C(=C1)C3=NNC4=CC=CC(=C43)C2=O
Summary of the method: as §1

[7] = compound: C1CCN(C1)C(=O)NC2=CC=CC(=C2)NC3=NC=C(C(=N3)NCCC4=CN=CN4)Br
Summary of the method: as §1

[8] = compound: C1CN(CCC1(CC2=CC=C(C=C2)Cl)N)C3=NC=NC4=C3C=CN4
Summary of the method: as §1

IRAK-1-4 Inhibitor I = compound: C1COCCN1CCN2C3=CC=CC=C3N=C2NC(=O)C4=CC(=CC=C4)[N+](=O)[O-] [IRAK-1-4 Inhibitor I]
Summary of the method: as §1

ibrutinib = compound: C=CC(=O)N1CCC[C@@H](n2nc(-c3ccc(Oc4ccccc4)cc3)c3c(N)ncnc32)C1 [ibrutinib]
Summary of the method: as §1

[9] = compound: CC(=O)c1cnc2ccc(-c3cc(Cl)c(O)c(Cl)c3)nc2c1N[C@H]1CC[C@H](CN(C)C)CC1
Summary of the method: as §1

ralimetinib = compound: CC(C)(C)Cn1c(N)nc2ccc(-c3[nH]c(C(C)(C)C)nc3-c3ccc(F)cc3)nc21 [ralimetinib]
Summary of the method: as §1

[10] = compound: CC(C)(O)CC(=O)NCCn1ccc2ncnc(Nc3ccc(Oc4cccc(C(F)(F)F)c4)c(Cl)c3)c21
Summary of the method: as §1

[11] = compound: CC(C)C1=C2N=C(C=C(N2N=C1)NCC3=CC=CC=C3)NCCCCCCN
Summary of the method: as §1

[12] = compound: CC1=C(C(CC(=O)N1)C2=CC=C(C=C2)C(F)(F)F)C(=O)NC3=C(C=C4C(=C3)C=NN4)F
Summary of the method: as §1

[13] = compound: CC1=C(C2=C(C=C1)C(=O)C3=CC=CC=C3N2CCCN)C
Summary of the method: as §1

[14] = compound: CC1=C(C=C(C=C1)NC(=O)C2=CC(=CC=C2)C(C)(C)C#N)NC3=CC4=C(C=C3)N=CN(C4=O)C
Summary of the method: as §1

[15] = compound: CC1=C(C=C(C=C1)NC(=O)C2=CC(=CC=C2)N(C)C)NC(=O)C3=CC=C(C=C3)O
Summary of the method: as §1

[16] = compound: CC1=CC=C(C=C1)SC2=C3C=C(SC3=CN=C2)C(=O)N
Summary of the method: as §1

Measured: log2 fold change

UGDH (UniProt O60701)
inactive: erlotinib 0.002 | [1] 0.046 | [2] -0.02 | [3] -0.009 | [4] 0.02 | [5] -0.041 | [6] -0.051 | [7] -0.004 | [8] -0.052 | IRAK-1-4 Inhibitor I -0.053 | ibrutinib 0.02 | [9] 0.02 | ralimetinib 0.085 | [10] -0.004 | [11] -0.004 | [12] 0.019 | [14] -0.037 | [15] 0.058 | [16] 0.031
active: [13] 0.215

VIPAS39 (UniProt Q9H9C1)
inactive: erlotinib -0.005 | [1] 0.001 | [2] 0.083 | [3] 0.024 | [4] 0.016 | [5] 0.09 | [6] 0.022 | [7] 0 | [8] 0.072 | IRAK-1-4 Inhibitor I 0.023 | ibrutinib 0.037 | [9] 0.03 | ralimetinib -0.007 | [10] -0.093 | [11] -0.045 | [12] -0.059 | [13] -0.123 | [14] 0.02 | [15] -0.012 | [16] -0.074

UNK (UniProt Q9C0B0)
inactive: erlotinib -0.012 | [1] -0.053 | [2] 0.11 | [3] 0.003 | [4] 0.012 | [5] -0.007 | [6] 0.014 | [7] 0.003 | [8] 0.01 | IRAK-1-4 Inhibitor I -0.083 | ibrutinib -0.003 | [9] 0.034 | ralimetinib -0.13 | [10] 0.085 | [11] -0.071 | [12] 0.018 | [13] -0.023 | [14] 0.016 | [15] -0.13 | [16] -0.017

UHRF1 isoform 2 (UniProt Q96T88)
inactive: erlotinib 0.015 | [1] 0.089 | [2] -0.1 | [3] 0 | [4] 0.089 | [5] 0.021 | [6] -0.032 | [7] 0.026 | [8] 0.053 | IRAK-1-4 Inhibitor I -0.022 | ibrutinib 0.013 | [9] -0.043 | ralimetinib 0.06 | [10] 0.062 | [11] 0.02 | [12] -0.021 | [13] -0.06 | [14] 0.018 | [15] 0.073 | [16] 0.006

USF2 (UniProt Q15853)
inactive: erlotinib 0.028 | [1] -0.017 | [2] 0.114 | [3] 0.036 | [4] -0.046 | [5] -0.03 | [6] -0.006 | [7] -0.018 | [8] -0.102 | IRAK-1-4 Inhibitor I -0.003 | ibrutinib -0.007 | [9] 0.013 | ralimetinib 0.008 | [10] 0.002 | [11] 0.029 | [12] -0.051 | [13] 0.006 | [14] -0.041 | [15] 0.009 | [16] -0.045

URI1 (UniProt O94763)
inactive: erlotinib -0.023 | [1] -0.055 | [2] 0.035 | [3] -0.056 | [4] -0.022 | [5] -0.012 | [6] -0.021 | [7] 0.025 | [8] -0.023 | IRAK-1-4 Inhibitor I 0.007 | ibrutinib 0.057 | [9] 0.012 | ralimetinib 0.022 | [10] 0.019 | [11] -0.045 | [12] 0.002 | [13] -0.001 | [14] 0 | [15] -0.028 | [16] -0.003

USE1 (UniProt Q9NZ43)
active: [1] 0.31
inactive: erlotinib 0.019 | [2] -0.026 | [3] -0.062 | [4] 0 | [5] -0.038 | [6] -0.06 | [7] 0.019 | [8] 0.025 | IRAK-1-4 Inhibitor I 0.056 | ibrutinib -0.039 | [9] -0.026 | ralimetinib -0.095 | [10] -0.102 | [11] -0.086 | [12] 0.024 | [13] -0.025 | [14] -0.007 | [15] 0.007 | [16] 0.027

USP5 isoform 2 (UniProt P45974)
inactive: erlotinib -0.005 | [1] -0.006 | [2] 0.01 | [3] -0.005 | [4] 0.004 | [5] -0.009 | [6] -0.008 | [7] 0.003 | [8] -0.01 | IRAK-1-4 Inhibitor I -0.016 | ibrutinib 0 | [9] -0.007 | ralimetinib -0.005 | [10] -0.007 | [11] -0.01 | [12] -0.02 | [13] 0.002 | [14] -0.009 | [15] 0.017 | [16] -0.006
